Assay results reported in patent US9730448B2, “Tetrazolinone compound and use of same” (Sumitomo Chemical Company, Limited, priority 2013, dated 2017).
Some entries share one result that the patent states for a list of compounds. At least one structure is not confirmed: it was looked up by name or label, or the drawing left a doubt.

Experiments:
Type in all cases: in vivo
[1] = test system: cucumber corynespora leaf spot fungus (Corynespora cassicola); test: Test Example 9: control of cucumber corynespora leaf spot, foliar spray on cucumber; conditions: 500 ppm water dilution sprayed on cucumber (SAGAMI HANJIRO); inoculated after one day; investigated after 7 days in greenhouse
[2] = test system: wheat leaf blotch fungus (Septoria tritici); test: Test Example 5: control of wheat leaf blotch, foliar spray on wheat; conditions: 500 ppm water dilution sprayed on wheat (APOGEE); inoculated after 4 days; investigated after 3 days high humidity + 14 to 18 days illumination
[3] = test system: kidney bean stem rot fungus (Sclerotinia sclerotiorum); test: Test Example 4: control of kidney bean stem rot, foliar spray on kidney bean; conditions: 500 ppm water dilution sprayed on kidney bean (NAGAUZURA SAITOU); PDA medium with hyphae placed on leaves; investigated four days after inoculation
[4] = test system: soybean rust fungus (Phakopsora pachyrhizi); test: Test Example 7: control of soybean rust, foliar spray on soybean; conditions: 500 ppm water dilution sprayed on soybean (KUROSENGOKU); inoculated after 2 days; investigated after 3 days high humidity + 14 days greenhouse
[5] = test system: barley scald fungus (Rhynchosporium secalis); test: Test Example 8: control of barley scald, foliar spray on barley; conditions: 500 ppm water dilution sprayed on barley (MIKAMO GOLDEN); inoculated after 2 days; investigated after 3 days high humidity + 7 days greenhouse
[6] = test system: cucumber anthracnose fungus (Colletotrichum lagenarium); test: Test Example 10: control of cucumber anthracnose, foliar spray on cucumber; conditions: 500 ppm water dilution sprayed on cucumber (SAGAMI HANJIRO); inoculated after one day; investigated after 1 day high humidity + 6 days greenhouse

Measured: area of lesion spots on the treated plant relative to that on an untreated plant

CCc1cccc(-n2nnn(C)c2=O)c1COc1ccc(-c2csc(C)n2)cc1C [compound 41]
≤ 30%: [1] | [2] | [3] | [4]

Cc1cnn(-c2ccc(OCc3c(C)cccc3-n3nnn(C)c3=O)c(C)c2)n1 [compound 60]
≤ 30%: [5] | [1] | [3]

Cc1cc(-c2cscn2)ccc1OCc1c(C)cccc1-n1nnn(C)c1=O [compound 42]
not listed: [6]
≤ 30%: all other assays above

Cc1ccc(-c2ccc(OCc3c(C)cccc3-n3nnn(C)c3=O)c(C)c2)s1 [compound 6]
not listed: [1]
≤ 30%: all other assays above

Cc1nc(-c2ccc(OCc3c(C)cccc3-n3nnn(C)c3=O)c(C)c2)c(C#N)s1 [compound 63]
≤ 30%: [1] | [2] | [3] | [6]

Cc1cc(-c2sccc2C)ccc1OCc1c(C)cccc1-n1nnn(C)c1=O [compound 3]
not listed: [1]
≤ 30%: all other assays above

Cc1nc(-c2ccc(OCc3c(C)cccc3-n3nnn(C)c3=O)c(C)c2)c(C)s1 [compound 47]
≤ 30%: [5] | [1] | [2] | [3]

Cc1cc(-n2cccc2)ccc1OCc1c(C)cccc1-n1nnn(C)c1=O [compound 55]
≤ 30%: [5] | [1] | [2] | [3]

Cc1cc(C2=NC(C)(C)CS2)ccc1OCc1c(C)cccc1-n1nnn(C)c1=O [compound 59]
≤ 30%: [1] | [4]

Cc1nnc(-c2ccc(OCc3c(C)cccc3-n3nnn(C)c3=O)c(C)c2)o1 [compound 28]
not listed: [1]
≤ 30%: all other assays above

Cc1cc(-c2ncsc2C)ccc1OCc1c(C)cccc1-n1nnn(C)c1=O [compound 38]
not listed: [1]
≤ 30%: all other assays above

Cc1cc(C2=NC(C)(C)CO2)ccc1OCc1c(C)cccc1-n1nnn(C)c1=O [compound 29]
not listed: [6]
≤ 30%: all other assays above
